ChEMBL document CHEMBL4842360, “Discovery of a Bicyclic Peptidyl Pan-Ras Inhibitor” (J Med Chem, 2021)

Test: Stability in human serum assessed as compound remaining at 100 uM measured after 24 hrs by RP-HPLC method
Type: ADME, cell-free
Settings: read-out: Stabilty

Question: For C[C@@H](NC(=O)[C@H](Cc1ccccc1)NC(=O)[C@@H](CCCNC(=N)N)NC(=O)[C@H](CCCN)NC(=O)[C@@H]1CNC(=O)c2cc3cc(c2)C(=O)N[C@H](Cc2ccc4ccccc4c2)C(=O)N[C@@H](CO)C(=O)N[C@@H](CC(N)=O)C(=O)N[C@H](Cc2ccc4ccccc4c2)C(=O)N[C@@H](c2ccccc2)C(=O)N[C@@H](CCCCNC3=O)C(=O)N[C@H](Cc2ccccc2)C(=O)N[C@@H](CCC(N)=O)C(=O)N[C@H](CCCNC(=N)N)C(=O)N[C@@H](CCCNC(=N)N)C(=O)N1)C(N)=O, which remaining at 24 h, 100 µM is on record?
Answer: 85%
